# Measured values reported in article PMC7367184.
# These are yes or no findings as the source states them, for the method shown. In cells and extracts the contact can be indirect. Binding calls can cover weak binding; strength is not graded here. Tags and fused reporters may be left off the sequences shown.
# Biological target: T1, HA-HCF2 (host cell factor 2) (UniProt Q9Y5Z7)
# T1 sequence: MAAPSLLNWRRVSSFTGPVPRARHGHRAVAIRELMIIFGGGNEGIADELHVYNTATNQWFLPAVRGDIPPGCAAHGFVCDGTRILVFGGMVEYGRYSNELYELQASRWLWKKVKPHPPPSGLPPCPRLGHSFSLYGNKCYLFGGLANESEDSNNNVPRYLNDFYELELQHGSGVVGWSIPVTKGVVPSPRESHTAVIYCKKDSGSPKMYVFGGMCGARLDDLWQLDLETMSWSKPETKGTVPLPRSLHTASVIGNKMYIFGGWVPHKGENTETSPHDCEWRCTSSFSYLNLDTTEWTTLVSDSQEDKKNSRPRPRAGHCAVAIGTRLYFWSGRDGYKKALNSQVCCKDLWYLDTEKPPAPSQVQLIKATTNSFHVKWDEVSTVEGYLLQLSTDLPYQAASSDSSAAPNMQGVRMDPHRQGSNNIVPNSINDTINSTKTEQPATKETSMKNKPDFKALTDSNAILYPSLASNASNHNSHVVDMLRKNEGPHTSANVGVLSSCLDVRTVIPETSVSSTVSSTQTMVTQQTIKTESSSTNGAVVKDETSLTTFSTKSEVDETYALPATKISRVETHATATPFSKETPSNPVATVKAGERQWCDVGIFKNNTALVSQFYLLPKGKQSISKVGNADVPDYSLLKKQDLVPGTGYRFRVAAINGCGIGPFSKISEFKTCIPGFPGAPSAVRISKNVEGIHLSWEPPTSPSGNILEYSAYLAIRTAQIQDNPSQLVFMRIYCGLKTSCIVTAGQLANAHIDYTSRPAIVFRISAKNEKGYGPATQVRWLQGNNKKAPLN
# Experiment: co-IP; anti-HA agarose IP of whole cell extracts of 293T cells transfected with F-Siah1 proteins and HA-HCF1 or HA-HCF2; washes with buffer D with 0.3 M KCl, then 0.1 M KCl; Western blot
substance,measurement,value
Flag-tagged Siah1 SBD (just the substrate-binding domain) (domain or fragment),binding,binds
